Assay results reported in patent US20210363214A1 (University of Washington, published 2021).
These are yes or no findings as the source states them, for the method shown. Some entries that bind do so weakly or less than the wild type. Values belong to the binder of their own block, whether it stands above or below them.

What was measured:
TMHC4_R [1] = experiment: AUC in detergent solution; self-association to homotetramer
TMHC4_R [2] = experiment: crystal structure at 3.9 A; homotetramer
TMHC2_E (elongated) [3] = experiment: AUC in detergent solution (C8E5); self-association to homodimer
TMHC2_E (elongated) [4] = experiment: AUC sedimentation equilibrium at three rotor speeds; self-association to homodimer
TMHC2_E (elongated) [5] = experiment: crystal structure at 2.95 A; homodimer
TMHC2_E (elongated) [6] = experiment: SDS-PAGE of purified protein; self-association
TMHC2_E (elongated) [7] = experiment: crystal structure; homodimer

binding (TMHC4_R [1]): binds
binding (TMHC4_R [2]): binds
B1: TMHC4_R (designed binder, not shown: small tags and cut ends)
chain: MSKDTEDSRKIWRTIMLLLVFAILLSAIIWYQITTNPDTSQIATLLSMQLLLIALMLVVIALLLSRQTEQVAESIRRDVSALAYVMLGLLLSLLNRLSLAAEAYKKAIELDPNDALAWLLLGSVLEKLKRLDEAAEAYKKAIELKPNDASAWKELGKVLEKLGRLDEAAEAYKKAIELDPEDAEAWKELGKVLEKLGRLDEAAEAYKKAIELAND

binding (TMHC2_E (elongated) [3]): binds
binding (TMHC2_E (elongated) [4]): binds
binding (TMHC2_E (elongated) [5]): binds
binding (TMHC2_E (elongated) [6]): binds
binding (TMHC2_E (elongated) [7]): binds
B2: TMHC2_E (elongated) (designed binder, not shown: small tags and cut ends)
chain: MTRTEIIRELERSLRLQLVLAIFLLALLIVLLWLLQQLKELLRELERLQREGSSDEDVRELLREIKELVENIVYLVIIIMVLVLVIIALAVTQKYLVEELKRQD
